Values from PubChem BioAssay AID743454 (Peter MacCallum Cancer Centre, 2014)
Purpose: 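Search for knock-downs that restore vorinostat killing in resistant colon cancer cells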 (primary screen). Cell system: human HCT116-VR colon cancer cells, selected for vorinostat resistance. Reagents: siRNA pool against human genes, 40 nM siRNA pool. Timing: vorinostat for 24 h, read-out about 72 h after transfection. Conditions: vorinostat at 2.5 µM final. Read-out: 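Two measures, CellTiter-Fluor viability and luminescent caspase 3/7 activity, each as fold change against same-plate mock wells, mean of duplicates, then screen-wide robust z-score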. Reading the numbers: viability robust z-score: higher = more viable cells than screen typical; caspase robust z-score: higher = more caspase 3/7 activity than screen typical. Rule for the call: 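a knock-down is a hit when classed RV1 or RV2 for lowered viability, or CA1 or CA2 for caspase activation; those lethal without drug were dropped; hits were retested singly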.
Here is one part, drawn at random, of about 18,000 reagents tested. 450 of them (2.5%) count as active. 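Single biological run; no consistent viability z cut-off exists, so the class columns, not z-scores, define the calls.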 Unmarked entries are inactive.

TAB2 (TGF-beta activated kinase 1 (MAP3K7) binding protein 2)
- viability hit class: no change
- caspase hit class: no change
- viability robust z-score: 1.48
- caspase robust z-score: 1.25

GAB4 (GRB2 associated binding protein family member 4)
- viability hit class: no change
- caspase hit class: no change
- viability robust z-score: -0.44
- caspase robust z-score: -0.62

SPACDR (sperm acrosome developmental regulator)
- viability hit class: no change
- caspase hit class: no change
- viability robust z-score: -0.76
- caspase robust z-score: 1.35

HNRNPAB (heterogeneous nuclear ribonucleoprotein A/B)
- viability hit class: no change
- caspase hit class: no change
- viability robust z-score: 0.3
- caspase robust z-score: -1.05

CDK4 (cyclin dependent kinase 4)
- viability hit class: no change
- caspase hit class: no change
- viability robust z-score: -0.11
- caspase robust z-score: -0.08

RAB33A (RAB33A, member RAS oncogene family)
- viability hit class: no change
- caspase hit class: no change
- viability robust z-score: -0.14
- caspase robust z-score: 0.14

PAK6-AS1 (PAK6 antisense RNA 1)
- viability hit class: no change
- caspase hit class: no change
- viability robust z-score: -0.54
- caspase robust z-score: 0.37

TRMU (tRNA mitochondrial 2-thiouridylase)
- viability hit class: no change
- caspase hit class: no change
- viability robust z-score: -0.34
- caspase robust z-score: 0.87

Only “viability robust z-score”, for 2 of the entries above:
SPACDR (sperm acrosome developmental regulator)	-0.76
HNRNPAB (heterogeneous nuclear ribonucleoprotein A/B)	0.3

More reagents follow.
TM9SF4 (transmembrane 9 superfamily member 4)
- viability hit class: no change
- caspase hit class: no change
- viability robust z-score: -0.8
- caspase robust z-score: -0.32

NMS (neuromedin S)
- viability hit class: no change
- caspase hit class: no change
- viability robust z-score: -0.16
- caspase robust z-score: 0.5

MED22 (mediator complex subunit 22)
- viability hit class: no change
- caspase hit class: no change
- viability robust z-score: -0.1
- caspase robust z-score: 1.21

RANBP6 (RAN binding protein 6)
- viability hit class: no change
- caspase hit class: no change
- viability robust z-score: 0.33
- caspase robust z-score: 1.66
